Publication PMC11070408 (EJNMMI Radiopharmacy and Chemistry, 2024)
The star is where a group is joined. Benzoyl(2,3-diOH) = O=C(c1cccc(O)c1O)*

Experiment: general procedure: peptide synthesis; Rink amide; DIC/HOBt
Details: conjugation step, overall from 3b

Substance: H-K(Benzoyl(2,3-diOH))K(Benzoyl(2,3-diOH))K(Benzoyl(2,3-diOH))K(Benzoyl(2,3-diOH))-NH2 (SMILES NC(=O)[C@H](CCCCNC(=O)c1cccc(O)c1O)NC(=O)[C@H](CCCCNC(=O)c1cccc(O)c1O)NC(=O)[C@H](CCCCNC(=O)c1cccc(O)c1O)NC(=O)[C@@H](N)CCCCNC(=O)c1cccc(O)c1O)
- conjugation yield: 16% overall yield
